From the supplement of paper PMC10735217
Where a name gives a salt, the structure may show the parent alone. The list shows a part of the results. Single values are uncertain here, since repeats match poorly.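 In a drug-repurposing library screen, luminescence reads luciferase driven by eight TEAD-binding elements, stably integrated into human kidney-derived cells. Compounds scoring over five robust Z scores above the plate mean are called hits.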

System: HEK293A TEAD-LUC reporter
Assay: TEAD-luciferase reporter activity (YAP activation), robust Z score vs plate; higher = stronger YAP/TEAD activation
Settings: 24 h

Row | SMILES | TEAD-luciferase reporter activity (compound concentration: 2 uM) | TEAD-luciferase reporter activity (compound concentration: 200 nM) | TEAD-luciferase reporter activity (compound concentration: 10 uM)
1 | O=C(O)c1c(O)c(-c2ccccc2)nc2ccccc12 | inactive: -0.239 | – | –
2 | O=C(O)c1c(O)c(-c2ccccc2)nc2ccccc12 [3-Hydroxy-2-phenylquinoline-4-carboxylic acid] | – | inactive: -0.967 | inactive: -0.995
3 | COc1cccc(Nc2c(C(N)=O)cnc3c(C)cc(S(=O)(=O)c4cccc(C(=O)N(C)C)c4)cc23)c1 | inactive: -2.39 | inactive: -0.546 | inactive: -1.36
4 | CC[C@H]1O[C@@H](n2cnc3c(=O)[nH]cnc32)[C@H](O)[C@@H]1O.N[C@@H](Cc1c[nH]c2ccc(O)cc12)C(=O)O [Triptosine] | inactive: 0.194 | inactive: 1.99 | inactive: 0.11
5 | CCCCOC(=O)NS(=O)(=O)c1ccccc1-c1ccc(Cn2c(CCCC)nc3cc(NC(=O)CCCC)c(C)nc32)cc1 | inactive: -0.692 | inactive: -0.996 | inactive: 0.242
6 | CCn1cc(-c2ccnc3[nH]c(-c4cccc(CN(C)C)c4)cc23)c(-c2ccc(NC(=O)N(C)C)cc2)n1 | inactive: -1.41 | inactive: 0.69 | inactive: 1.23
7 | c1cc(-c2cnn3cc(-c4ccc(OCCN5CCCCC5)cc4)cnc23)ccn1 [Compound C] | inactive: 2.16 | inactive: -0.687 | inactive: -0.104
8 | NC1CCN(c2c(F)cc3c(=O)c(C(=O)O)cn4c3c2Oc2ccccc2-4)C1 (stereo unspecified) | active: 16.4 | inactive: -1.55 | active: 5.15
9 | C=CC1=C(C(=O)O)N2C(=O)[C@@H](NC(=O)C(N=O)c3csc(N)n3)[C@H]2SC1 (stereo partly specified) | inactive: -1.4 | active: 8.92 | inactive: 2.57
10 | O=C(NCCO)c1nn(-c2ccccc2F)c2c1CCC2 | inactive: -0.042 | inactive: -0.881 | inactive: 0.573
11 | CCC(c1ccc(O)cc1)C(CC)C(C)c1ccc(O)cc1 (stereo unspecified) | inactive: 2.92 | inactive: 1.42 | inactive: 1.72
12 | CC(C)[C@H](NC(=O)[C@H](CCCCN)NC(=O)[C@H](CC(=O)O)NC(=O)[C@@H](N)CCCNC(=N)N)C(=O)N[C@@H](Cc1ccc(O)cc1)C(=O)N[C@@H](CCCNC(=N)N)C(=O)O [Imunofan] | inactive: 0.34 | inactive: -1.27 | inactive: -1.93
13 | CC[C@H](C)[C@@H]([C@@H](CC(=O)N1CCC[C@H]1[C@H](OC)[C@@H](C)C(=O)NCCc1ccccc1)OC)N(C)C(=O)[C@@H](NC(=O)[C@H](C(C)C)N(C)C)C(C)C [soblidotin] | inactive: 2.85 | inactive: 3.61 | inactive: 2.26
14 | O=C(Oc1ccccc1)c1ccccc1O [Phenyl salicylate] | – | inactive: -0.0239 | inactive: -0.904
15 | O=C(Oc1ccccc1)c1ccccc1O | inactive: 0.0836 | – | –
16 | CCOCCOC(=O)c1nc2cc(Cl)ccc2o1 | inactive: 0.231 | inactive: 0.614 | inactive: -0.567
17 | O=C(Nc1cnccc1Cl)N1CCN(Cc2ccc3c(c2)OC(F)(F)O3)CC1 | inactive: -0.366 | inactive: 1.2 | inactive: 0.459
18 | c1ccc([C@H]2CN3CCSC3=N2)cc1 [levamisole] | inactive: 1.36 | – | –
19 | c1ccc([C@H]2CN3CCSC3=N2)cc1 [Levamisole HCl] | – | inactive: -1.53 | inactive: -1.13
20 | COC(=O)CSc1nc(-c2ccccc2)c(-c2ccccc2)o1 | inactive: -0.637 | inactive: -1.44 | inactive: -0.334
21 | CC(=O)[C@]1(O)Cc2c(O)c3c(c(O)c2[C@@H](OC2C[C@H](N)[C@H](O)[C@H](C)O2)C1)C(=O)c1ccccc1C3=O (stereo partly specified) [idarubicin] | inactive: 2 | inactive: 1.8 | inactive: 2.49
22 | CCN(CCCc1ccccc1)CCCc1ccccc1 [Alverine citrate] | inactive: -0.402 | inactive: 0.295 | inactive: 0.45
23 | CC[C@H](C)[C@H](NC(=O)[C@H](CC(N)=O)NC(=O)[C@H](CC(N)=O)NC(=O)[C@H](CCCNC(=N)N)NC(=O)[C@H](CC(N)=O)NC(=O)[C@H](CCCNC(=N)N)NC(=O)[C@@H](N)CCCCN)C(=O)N[C@@H](C)C(=O)O | inactive: -0.353 | inactive: -0.653 | inactive: -0.089
24 | O=C(O)CC[C@H](NC(=O)[C@H]1CC[C@H](Oc2ccc(C(=O)c3ccccc3)c(Cl)c2Cl)C1)C(=O)O | – | inactive: -0.0195 | inactive: 3.94
25 | C[C@@](Cc1ccc(O)c(O)c1)(NN)C(=O)O [Carbidopa] | inactive: -1.26 | inactive: -0.3 | inactive: 0.69
26 | CCN(CC)C(=O)Nc1ccc(OCC(O)CNC(C)(C)C)c(C(C)=O)c1 (stereo unspecified) [celiprolol] | inactive: -2.15 | inactive: 0.876 | inactive: 2.74
27 | COCC1=C(C(=O)O)N2C(=O)[C@@H](NC(=O)/C(=N\OC)c3csc(N)n3)[C@H]2SC1 | – | inactive: -0.603 | inactive: -0.903
28 | COCC1=C(C(=O)O)N2C(=O)[C@@H](NC(=O)/C(=N\OC)c3csc(N)n3)[C@H]2SC1 [Cefpodoxime] | inactive: -0.945 | – | –

Quoted from the listing.
TEAD-luciferase reporter activity (compound concentration: 10 uM), CCN(CC)C(=O)Nc1ccc(OCC(O)CNC(C)(C)C)c(C(C)=O)c1 (stereo unspecified) [celiprolol] reads inactive: 2.74
TEAD-luciferase reporter activity (compound concentration: 10 uM), CC(C)[C@H](NC(=O)[C@H](CCCCN)NC(=O)[C@H](CC(=O)O)NC(=O)[C@@H](N)CCCNC(=N)N)C(=O)N[C@@H](Cc1ccc(O)cc1)C(=O)N[C@@H](CCCNC(=N)N)C(=O)O [Imunofan] reads inactive: -1.93
